Source: the supplement of paper PMC10849652
Some of the results follow.

By UniProt entry, the sequences of proteins in these tests, tags left out. Where a name states a change or a piece, a line headed by the entry shows the natural chain unless it says otherwise.
UniProt P55769: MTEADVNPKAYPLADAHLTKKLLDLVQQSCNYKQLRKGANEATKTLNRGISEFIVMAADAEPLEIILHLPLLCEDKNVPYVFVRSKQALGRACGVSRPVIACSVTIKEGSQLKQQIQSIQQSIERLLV
UniProt Q13424: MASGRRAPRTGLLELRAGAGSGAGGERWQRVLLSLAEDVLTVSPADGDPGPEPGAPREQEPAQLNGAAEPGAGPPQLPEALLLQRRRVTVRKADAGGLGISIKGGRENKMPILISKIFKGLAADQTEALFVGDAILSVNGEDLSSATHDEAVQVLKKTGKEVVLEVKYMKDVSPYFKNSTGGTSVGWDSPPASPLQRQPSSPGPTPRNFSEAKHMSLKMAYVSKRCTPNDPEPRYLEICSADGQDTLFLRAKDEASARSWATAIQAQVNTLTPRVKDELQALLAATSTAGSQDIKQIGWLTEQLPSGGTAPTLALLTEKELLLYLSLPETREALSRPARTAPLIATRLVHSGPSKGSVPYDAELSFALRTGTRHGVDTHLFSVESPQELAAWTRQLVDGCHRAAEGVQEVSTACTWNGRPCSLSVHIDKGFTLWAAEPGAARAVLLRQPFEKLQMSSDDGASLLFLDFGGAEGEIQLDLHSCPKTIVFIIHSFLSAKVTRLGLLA
UniProt Q96GM5, whole entry, looked up: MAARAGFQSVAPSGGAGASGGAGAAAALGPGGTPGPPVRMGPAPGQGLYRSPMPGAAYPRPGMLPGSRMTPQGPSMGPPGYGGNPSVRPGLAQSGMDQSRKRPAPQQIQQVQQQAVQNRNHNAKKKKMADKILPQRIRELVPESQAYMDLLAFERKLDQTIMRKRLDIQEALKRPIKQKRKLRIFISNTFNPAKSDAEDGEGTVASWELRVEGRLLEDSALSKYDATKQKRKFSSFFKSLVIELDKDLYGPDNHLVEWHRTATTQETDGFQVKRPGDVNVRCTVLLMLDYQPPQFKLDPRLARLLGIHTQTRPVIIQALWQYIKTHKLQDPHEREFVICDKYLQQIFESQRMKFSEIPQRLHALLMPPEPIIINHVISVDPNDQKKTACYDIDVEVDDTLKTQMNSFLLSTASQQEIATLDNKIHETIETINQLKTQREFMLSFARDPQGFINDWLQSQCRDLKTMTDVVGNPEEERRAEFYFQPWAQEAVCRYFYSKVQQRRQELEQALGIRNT
UniProt P08579, whole entry, looked up: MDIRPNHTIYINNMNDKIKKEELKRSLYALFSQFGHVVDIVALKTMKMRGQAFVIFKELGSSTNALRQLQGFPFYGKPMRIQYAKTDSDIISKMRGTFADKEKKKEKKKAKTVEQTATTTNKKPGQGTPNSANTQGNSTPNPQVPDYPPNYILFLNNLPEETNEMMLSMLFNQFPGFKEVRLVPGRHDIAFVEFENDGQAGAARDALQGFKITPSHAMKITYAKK
UniProt Q00796: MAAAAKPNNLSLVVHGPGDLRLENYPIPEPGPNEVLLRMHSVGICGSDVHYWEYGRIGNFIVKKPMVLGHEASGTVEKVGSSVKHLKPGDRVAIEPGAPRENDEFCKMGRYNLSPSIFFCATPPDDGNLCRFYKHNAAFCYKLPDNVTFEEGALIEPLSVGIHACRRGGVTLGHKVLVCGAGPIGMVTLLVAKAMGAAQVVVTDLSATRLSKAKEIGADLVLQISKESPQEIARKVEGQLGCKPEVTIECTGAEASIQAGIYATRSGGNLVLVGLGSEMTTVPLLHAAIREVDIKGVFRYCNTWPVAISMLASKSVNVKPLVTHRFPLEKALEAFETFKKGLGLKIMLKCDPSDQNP
UniProt Q9Y5W9: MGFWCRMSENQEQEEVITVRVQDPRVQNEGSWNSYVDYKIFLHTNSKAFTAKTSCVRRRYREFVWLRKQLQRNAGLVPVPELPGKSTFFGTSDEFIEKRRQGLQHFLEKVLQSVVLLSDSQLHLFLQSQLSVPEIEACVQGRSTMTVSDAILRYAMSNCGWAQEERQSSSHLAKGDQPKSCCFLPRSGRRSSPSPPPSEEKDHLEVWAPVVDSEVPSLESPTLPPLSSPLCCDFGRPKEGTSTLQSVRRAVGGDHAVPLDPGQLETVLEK
UniProt Q9NS25: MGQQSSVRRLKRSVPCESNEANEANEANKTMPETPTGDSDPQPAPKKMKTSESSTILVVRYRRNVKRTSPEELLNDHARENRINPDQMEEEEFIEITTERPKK
UniProt Q92922, whole entry, looked up: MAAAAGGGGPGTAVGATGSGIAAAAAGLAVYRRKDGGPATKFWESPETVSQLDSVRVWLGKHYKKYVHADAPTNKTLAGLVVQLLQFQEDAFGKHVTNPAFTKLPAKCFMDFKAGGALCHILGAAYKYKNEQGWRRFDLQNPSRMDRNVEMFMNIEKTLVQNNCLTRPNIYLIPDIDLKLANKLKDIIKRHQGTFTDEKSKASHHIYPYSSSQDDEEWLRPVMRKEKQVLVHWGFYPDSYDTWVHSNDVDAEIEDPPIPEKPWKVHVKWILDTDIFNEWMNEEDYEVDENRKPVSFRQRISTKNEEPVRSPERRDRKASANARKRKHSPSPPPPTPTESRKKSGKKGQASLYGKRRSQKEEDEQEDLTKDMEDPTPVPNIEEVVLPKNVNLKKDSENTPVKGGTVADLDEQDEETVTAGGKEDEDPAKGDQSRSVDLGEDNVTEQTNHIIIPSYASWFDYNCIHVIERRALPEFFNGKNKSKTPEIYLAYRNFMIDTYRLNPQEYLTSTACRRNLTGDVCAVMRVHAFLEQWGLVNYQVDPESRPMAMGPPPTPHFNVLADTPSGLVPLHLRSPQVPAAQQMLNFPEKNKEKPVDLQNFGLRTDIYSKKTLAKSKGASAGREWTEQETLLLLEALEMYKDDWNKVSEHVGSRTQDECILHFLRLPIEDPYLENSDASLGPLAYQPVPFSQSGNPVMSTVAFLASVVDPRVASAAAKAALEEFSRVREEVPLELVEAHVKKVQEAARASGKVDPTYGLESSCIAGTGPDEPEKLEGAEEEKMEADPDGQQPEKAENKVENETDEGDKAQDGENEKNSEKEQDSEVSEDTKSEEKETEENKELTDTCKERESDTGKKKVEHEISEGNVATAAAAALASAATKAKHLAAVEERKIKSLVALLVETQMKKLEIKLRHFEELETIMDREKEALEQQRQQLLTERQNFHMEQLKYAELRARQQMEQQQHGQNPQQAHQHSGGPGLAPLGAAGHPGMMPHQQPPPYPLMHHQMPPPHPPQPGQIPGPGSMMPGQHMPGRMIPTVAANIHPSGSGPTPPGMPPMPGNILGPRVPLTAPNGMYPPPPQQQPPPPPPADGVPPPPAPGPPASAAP
UniProt P62304, whole entry, looked up: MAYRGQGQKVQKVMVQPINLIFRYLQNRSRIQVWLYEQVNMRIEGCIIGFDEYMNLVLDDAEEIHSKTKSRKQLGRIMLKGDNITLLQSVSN
UniProt Q9Y5X1: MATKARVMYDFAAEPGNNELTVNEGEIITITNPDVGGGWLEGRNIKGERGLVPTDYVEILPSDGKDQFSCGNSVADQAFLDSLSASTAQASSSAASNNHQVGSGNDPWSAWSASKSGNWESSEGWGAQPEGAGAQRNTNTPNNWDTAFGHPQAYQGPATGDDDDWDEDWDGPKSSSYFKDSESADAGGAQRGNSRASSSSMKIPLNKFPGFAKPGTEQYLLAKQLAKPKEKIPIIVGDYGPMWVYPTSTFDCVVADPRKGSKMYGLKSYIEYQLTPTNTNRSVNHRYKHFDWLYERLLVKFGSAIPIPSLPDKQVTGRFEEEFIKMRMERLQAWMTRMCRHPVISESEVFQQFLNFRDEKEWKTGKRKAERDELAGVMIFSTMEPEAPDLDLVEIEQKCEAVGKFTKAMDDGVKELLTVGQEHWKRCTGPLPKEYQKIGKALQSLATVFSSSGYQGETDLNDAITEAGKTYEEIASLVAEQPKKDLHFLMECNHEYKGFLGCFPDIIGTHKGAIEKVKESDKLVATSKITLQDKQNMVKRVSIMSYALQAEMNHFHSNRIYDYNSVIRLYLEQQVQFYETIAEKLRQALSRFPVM
UniProt P0DMW3: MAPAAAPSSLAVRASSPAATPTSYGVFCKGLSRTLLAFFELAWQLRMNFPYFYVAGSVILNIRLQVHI
UniProt Q92925, whole entry, looked up: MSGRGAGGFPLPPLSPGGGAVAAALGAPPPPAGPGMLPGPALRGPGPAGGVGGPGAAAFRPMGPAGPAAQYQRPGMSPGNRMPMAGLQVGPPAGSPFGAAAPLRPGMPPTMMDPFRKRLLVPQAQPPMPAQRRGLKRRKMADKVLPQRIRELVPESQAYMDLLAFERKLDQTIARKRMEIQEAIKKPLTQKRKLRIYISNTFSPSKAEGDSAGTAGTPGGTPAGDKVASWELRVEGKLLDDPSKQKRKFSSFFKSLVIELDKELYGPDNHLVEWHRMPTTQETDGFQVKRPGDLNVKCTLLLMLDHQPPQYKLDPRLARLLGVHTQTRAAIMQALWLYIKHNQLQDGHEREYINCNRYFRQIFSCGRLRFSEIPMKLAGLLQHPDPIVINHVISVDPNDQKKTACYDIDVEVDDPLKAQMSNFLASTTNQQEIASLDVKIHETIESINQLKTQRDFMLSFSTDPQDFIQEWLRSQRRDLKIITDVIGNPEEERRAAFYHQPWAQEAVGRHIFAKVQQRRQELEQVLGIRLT
UniProt Q96KF7: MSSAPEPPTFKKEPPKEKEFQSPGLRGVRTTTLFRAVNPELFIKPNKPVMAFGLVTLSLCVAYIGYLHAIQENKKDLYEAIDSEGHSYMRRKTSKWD
UniProt Q96DI7: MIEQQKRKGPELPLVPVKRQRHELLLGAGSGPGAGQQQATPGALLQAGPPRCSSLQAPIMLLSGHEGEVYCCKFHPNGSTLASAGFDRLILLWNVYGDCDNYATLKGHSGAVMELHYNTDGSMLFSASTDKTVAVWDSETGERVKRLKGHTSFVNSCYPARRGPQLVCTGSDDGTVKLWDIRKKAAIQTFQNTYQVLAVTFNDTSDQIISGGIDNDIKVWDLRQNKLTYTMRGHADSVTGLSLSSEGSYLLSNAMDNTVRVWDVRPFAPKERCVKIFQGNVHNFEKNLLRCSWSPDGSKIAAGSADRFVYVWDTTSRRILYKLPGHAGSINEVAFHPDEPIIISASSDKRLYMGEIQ
UniProt O95721: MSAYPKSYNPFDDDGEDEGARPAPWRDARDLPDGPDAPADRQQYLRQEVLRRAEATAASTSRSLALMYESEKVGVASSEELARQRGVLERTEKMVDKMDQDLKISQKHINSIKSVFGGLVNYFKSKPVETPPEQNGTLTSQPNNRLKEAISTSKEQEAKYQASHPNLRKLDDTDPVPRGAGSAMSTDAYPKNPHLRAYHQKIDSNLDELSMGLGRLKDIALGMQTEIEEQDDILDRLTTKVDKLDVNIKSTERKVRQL
UniProt O95347, whole entry, looked up: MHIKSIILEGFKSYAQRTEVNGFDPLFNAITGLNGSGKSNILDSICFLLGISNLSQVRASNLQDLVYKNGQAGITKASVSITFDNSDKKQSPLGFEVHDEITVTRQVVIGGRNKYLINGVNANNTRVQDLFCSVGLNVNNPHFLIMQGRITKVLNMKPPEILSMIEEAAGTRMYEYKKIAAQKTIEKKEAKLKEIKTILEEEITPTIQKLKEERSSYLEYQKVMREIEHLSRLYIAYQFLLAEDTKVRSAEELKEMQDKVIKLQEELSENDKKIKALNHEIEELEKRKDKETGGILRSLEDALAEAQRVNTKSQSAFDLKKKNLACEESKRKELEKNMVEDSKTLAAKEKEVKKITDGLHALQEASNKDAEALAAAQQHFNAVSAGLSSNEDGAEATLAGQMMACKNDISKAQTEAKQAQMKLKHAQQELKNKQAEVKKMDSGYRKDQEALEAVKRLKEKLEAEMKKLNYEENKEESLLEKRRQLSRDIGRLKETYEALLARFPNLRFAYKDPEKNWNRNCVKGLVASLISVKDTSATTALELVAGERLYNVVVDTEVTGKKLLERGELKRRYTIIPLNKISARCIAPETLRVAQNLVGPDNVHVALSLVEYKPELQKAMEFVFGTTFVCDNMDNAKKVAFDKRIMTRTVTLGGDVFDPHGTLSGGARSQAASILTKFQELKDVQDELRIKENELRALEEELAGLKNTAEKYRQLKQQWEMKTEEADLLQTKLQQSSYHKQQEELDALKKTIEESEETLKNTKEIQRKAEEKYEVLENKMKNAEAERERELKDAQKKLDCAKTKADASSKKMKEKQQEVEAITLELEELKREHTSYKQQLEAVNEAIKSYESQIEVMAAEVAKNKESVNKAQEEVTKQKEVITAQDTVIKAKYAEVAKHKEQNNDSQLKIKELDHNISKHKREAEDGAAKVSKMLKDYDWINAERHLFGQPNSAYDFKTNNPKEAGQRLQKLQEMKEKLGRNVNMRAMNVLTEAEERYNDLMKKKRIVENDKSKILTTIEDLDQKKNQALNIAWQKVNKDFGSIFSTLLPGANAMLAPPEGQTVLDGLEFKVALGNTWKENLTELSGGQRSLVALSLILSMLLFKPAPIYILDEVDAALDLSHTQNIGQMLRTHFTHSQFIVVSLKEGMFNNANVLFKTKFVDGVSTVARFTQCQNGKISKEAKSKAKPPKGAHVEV

Experiments:
Test in all cases: log2 fold change, soluble protein after heating vs DMSO (PISA); higher = thermal stabilisation; K562 lysate, 10 uM; active = over 0.2 and 3.5 SD of the protein, either way, in both replicates (recomputed)
alvocidib = compound: CN1CC[C@H](c2c(O)cc(O)c3c(=O)cc(-c4ccccc4Cl)oc23)[C@H](O)C1 [alvocidib]
In short: (§1)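 To prepare the extract, K562 pellets were dounce-homogenised in PBS pH 7.4 with 1 mM MgCl2, giving crude material at 1 mg/mL protein. This was treated with 10 μM compound for 30 min, then heated in aliquots for 3 min over 48°C-58°C before pooling and addition of NP-40 to 0.5% at 4°C. Centrifugation at 21,000xg for 90 min left soluble protein in the supernatant, which TMTpro 16plex LC-MS/MS quantified with equalised channel sums. Results are log-two fold changes in thermal stability compared with solvent controls, from duplicates.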

Tubastatin A = compound: CN1CCc2c(c3ccccc3n2Cc2ccc(C(=O)NO)cc2)C1 [Tubastatin A]
In short: as §1

[1] = compound: CNC(=O)C1=CC=CC=C1NC2=NC(=NC=C2Cl)NC3=C(C=C(C=C3)N4CCOCC4)OC
In short: as §1

defactinib = compound: CNC(=O)c1ccc(Nc2ncc(C(F)(F)F)c(NCc3nccnc3N(C)S(C)(=O)=O)n2)cc1 [defactinib]
In short: as §1

[2] = compound: CNc1nc(-c2ccc3c(N)n[nH]c3c2)cc(N2C[C@@H](C(=O)NC3CCCCC3)CC[C@H]2C)n1
In short: as §1

encorafenib = compound: COC(=O)N[C@@H](C)CNc1nccc(-c2cn(C(C)C)nc2-c2cc(Cl)cc(NS(C)(=O)=O)c2F)n1 [encorafenib]
In short: as §1

[3] = compound: COC(=O)[C@H](CCSC)NC(=O)C1=C(C=C(C=C1)NC[C@H](CS)N)C2=CC=CC=C2
In short: as §1

alisertib = compound: COc1cc(Nc2ncc3c(n2)-c2ccc(Cl)cc2C(c2c(F)cccc2OC)=NC3)ccc1C(=O)O [alisertib]
In short: as §1

[4] = compound: COc1cc2nc(-c3cc(F)ccc3O)nc(N[C@@H]3CNC[C@H]3C(C)(C)O)c2cc1OC
In short: as §1

gefitinib = compound: COc1cc2ncnc(Nc3ccc(F)c(Cl)c3)c2cc1OCCCN1CCOCC1 [gefitinib]
In short: as §1

Measured: log2 fold change

SPAG5 (UniProt Q96R06)
inactive: alvocidib -0.019 | Tubastatin A -0.119 | [1] 0.031 | defactinib 0.008 | [2] 0.003 | encorafenib 0.071 | [3] -0.081 | alisertib -0.01 | [4] -0.017 | gefitinib 0.019

SNU13 (UniProt P55769)
inactive: alvocidib 0.024 | Tubastatin A -0.017 | [1] 0.002 | defactinib 0.039 | [2] -0.006 | encorafenib 0.01 | [3] 0.016 | alisertib -0.029 | [4] -0.013 | gefitinib -0.056

SNCA (UniProt P37840)
inactive: alvocidib -0.094 | Tubastatin A 0.172 | [1] 0.028 | defactinib -0.019 | [2] 0.269 | encorafenib -0.026 | [3] 0.204 | alisertib -0.021 | [4] 0.117 | gefitinib 0.089

SNAP23 (UniProt O00161)
inactive: alvocidib 0.035 | Tubastatin A 0.015 | [1] -0.027 | defactinib -0.002 | [2] -0.01 | encorafenib 0 | [3] -0.033 | alisertib -0.015 | [4] 0.005 | gefitinib 0.02

SON isoform 9 (UniProt P18583)
inactive: alvocidib -0.04 | Tubastatin A -0.038 | [1] -0.016 | defactinib -0.028 | [2] -0.022 | encorafenib 0.081 | [3] 0.057 | alisertib 0.026 | [4] 0.002 | gefitinib -0.046

SNTA1 (UniProt Q13424)
inactive: alvocidib 0.027 | Tubastatin A 0.026 | [1] -0.102 | defactinib -0.003 | [2] 0.059 | encorafenib 0.016 | [3] 0.076 | alisertib -0.027 | [4] -0.128 | gefitinib 0.011

SMARCD1 (UniProt Q96GM5)
inactive: alvocidib -0.005 | Tubastatin A -0.094 | [1] -0.01 | defactinib -0.005 | [2] -0.001 | encorafenib 0.03 | [3] 0.116 | alisertib 0.019 | [4] -0.002 | gefitinib -0.005

SNRPB2 (UniProt P08579)
inactive: alvocidib 0.014 | Tubastatin A 0.032 | [1] -0.027 | defactinib 0.035 | [2] 0.045 | encorafenib 0.036 | [3] 0.016 | alisertib -0.048 | [4] 0.025 | gefitinib 0.003

SORD (UniProt Q00796)
inactive: alvocidib -0.02 | Tubastatin A 0.037 | [1] 0.002 | defactinib -0.008 | [2] 0.014 | encorafenib 0.005 | [3] -0.05 | alisertib -0.013 | [4] 0.005 | gefitinib -0.016

SNRPA (UniProt P09012)
inactive: alvocidib -0.019 | Tubastatin A 0.042 | [1] 0.001 | defactinib -0.045 | [2] 0.029 | encorafenib -0.018 | [3] 0.015 | alisertib 0.022 | [4] 0.003 | gefitinib 0.006

SPARC (UniProt P09486)
inactive: alvocidib -0.025 | Tubastatin A -0.061 | [1] -0.202 | defactinib 0.02 | [2] -0.101 | encorafenib -0.016 | [3] -0.11

SPAG9 (UniProt O60271)
inactive: alvocidib -0.014 | Tubastatin A 0.047 | [1] 0.005 | defactinib -0.03 | [2] -0.002 | encorafenib 0.002 | [3] 0.01 | alisertib -0.005 | [4] 0.005 | gefitinib 0.027

SNX11 (UniProt Q9Y5W9)
inactive: alvocidib -0.042 | Tubastatin A 0.097 | [1] -0.014 | defactinib -0.038 | [2] 0.018 | encorafenib -0.01 | [3] 0.015 | alisertib -0.009 | [4] -0.017 | gefitinib -0.005

SNX16 (UniProt P57768)
inactive: alvocidib -0.083 | Tubastatin A -0.018 | [1] -0.05 | defactinib 0.08 | [2] 0.041 | encorafenib 0.01 | [3] 0.037 | alisertib 0.029 | [4] -0.026 | gefitinib 0.007

SPANXB1 (UniProt Q9NS25)
inactive: alvocidib -0.124

SMARCC1 (UniProt Q92922)
inactive: alvocidib -0.013 | Tubastatin A -0.063 | [1] -0.004 | defactinib -0.004 | [2] 0.001 | encorafenib 0.005 | [3] 0.053 | alisertib -0.014 | [4] -0.002 | gefitinib -0.06

Two successive records out of the list so far:
SPAG9 (UniProt O60271)
inactive: alvocidib -0.014 | Tubastatin A 0.047 | [1] 0.005 | defactinib -0.03 | [2] -0.002 | encorafenib 0.002 | [3] 0.01 | alisertib -0.005 | [4] 0.005 | gefitinib 0.027

SNX11 (UniProt Q9Y5W9)
inactive: alvocidib -0.042 | Tubastatin A 0.097 | [1] -0.014 | defactinib -0.038 | [2] 0.018 | encorafenib -0.01 | [3] 0.015 | alisertib -0.009 | [4] -0.017 | gefitinib -0.005

More results.

SNRPE (UniProt P62304)
inactive: alvocidib -0.068 | Tubastatin A 0.023 | [1] 0.003 | defactinib 0.009 | [2] 0.048 | encorafenib 0.043 | [3] 0.012 | alisertib -0.016 | [4] 0.002 | gefitinib 0.005

SNX9 (UniProt Q9Y5X1)
inactive: alvocidib 0.02 | Tubastatin A -0.118 | [1] 0.008 | defactinib 0.027 | [2] -0.065 | encorafenib 0.007 | [3] 0.01 | alisertib -0.01 | [4] 0.023 | gefitinib -0.005

SMIM10L1 (UniProt P0DMW3)
inactive: alvocidib -0.068

SMARCD2 (UniProt Q92925)
inactive: alvocidib 0.008 | Tubastatin A -0.089 | [1] 0.011 | defactinib -0.023 | [2] -0.015 | encorafenib -0.01 | [3] 0.059 | alisertib -0.005 | [4] -0.008 | gefitinib -0.006

SMARCE1 (UniProt Q969G3)
inactive: alvocidib 0.012 | Tubastatin A 0.006 | [1] 0.002 | defactinib -0.001 | [2] -0.044 | encorafenib -0.005 | [3] 0.081 | alisertib -0.049 | [4] 0.002 | gefitinib -0.03

SMIM8 (UniProt Q96KF7)
inactive: alvocidib -0.01 | Tubastatin A 0.034 | [1] -0.041 | defactinib 0.034 | [2] 0.066 | encorafenib 0.028 | [3] 0.078 | alisertib 0.062 | [4] 0.014 | gefitinib -0.015

SNRNP40 (UniProt Q96DI7)
inactive: alvocidib -0.026 | Tubastatin A 0.021 | [1] -0.019 | defactinib -0.009 | [2] -0.021 | encorafenib -0.025 | [3] -0.01 | alisertib 0.016 | [4] -0.004 | gefitinib -0.01

SNAP29 (UniProt O95721)
inactive: alvocidib -0.029 | Tubastatin A 0.049 | [1] 0.008 | defactinib 0.004 | [2] 0.035 | encorafenib -0.006 | [3] -0.004 | alisertib 0.017 | [4] -0.018 | gefitinib 0.058

SOD2 (UniProt P04179)
inactive: alvocidib -0.067 | Tubastatin A -0.005 | [1] -0.008 | defactinib 0.003 | [2] 0.036 | encorafenib -0.019 | [3] -0.026 | alisertib 0.015 | [4] 0.025 | gefitinib 0.013

SNF8 (UniProt Q96H20)
inactive: alvocidib -0.026 | Tubastatin A 0.006 | [1] -0.036 | defactinib 0.015 | [2] -0.029 | encorafenib 0.026 | [3] 0.038 | alisertib -0.012 | [4] 0 | gefitinib -0.013

SMC2 (UniProt O95347)
inactive: alvocidib 0.039 | Tubastatin A -0.087 | [1] -0.004 | defactinib -0.003 | [2] -0.022 | encorafenib -0.005 | [3] 0.047 | alisertib 0.005 | [4] 0.003 | gefitinib -0.003

SMC1A (UniProt Q14683)
inactive: alvocidib 0.002 | Tubastatin A 0.011 | [1] 0.001 | defactinib 0.008 | [2] -0.005 | encorafenib 0.009 | [3] 0.017 | alisertib 0.001 | [4] 0.004 | gefitinib 0.001

SNX8 (UniProt Q9Y5X2)
inactive: alvocidib -0.029 | Tubastatin A 0.025 | [1] 0.03 | defactinib 0.019 | [2] 0.072 | encorafenib 0.009 | [3] -0.068 | alisertib -0.025 | [4] 0.002 | gefitinib -0.004

SP1 (UniProt P08047)
inactive: alvocidib -0.017 | Tubastatin A -0.013 | [1] 0.053 | defactinib 0.03 | [2] 0.104 | encorafenib 0.073 | [3] -0.087 | alisertib 0.005 | [4] -0.06 | gefitinib 0.003

SORBS1 isoform 8 (UniProt Q9BX66)
inactive: alvocidib -0.014 | Tubastatin A 0.007 | [1] 0.008 | defactinib -0.046 | [2] 0.046 | encorafenib 0 | [3] -0.019 | alisertib 0.001 | [4] -0.011 | gefitinib -0.005

SMG5 (UniProt Q9UPR3)
inactive: alvocidib 0.086 | Tubastatin A -0.075 | [1] 0.014 | defactinib 0.04 | [2] -0.037 | encorafenib 0.067 | [3] 0.058 | alisertib 0.04 | [4] 0.004 | gefitinib 0.028
